The target in the test is Bcl2-associated anthanogene-3 (BAG3), FLAG-tagged, full length (human) (UniProt O95817). In words: co-IP; HEK293 cells transfected 48 h, lysed in RIPA buffer; FLAG-BAG3 constructs precipitated with FLAG antibody on magnetic beads in Tris (pH 7.5)-buffered saline; western blot of the partner. (In general: A western blot detects proteins with antibodies after separation by electrophoresis.)

Chains of the proteins cited; added tags and fusions are not shown.
UniProt O95817: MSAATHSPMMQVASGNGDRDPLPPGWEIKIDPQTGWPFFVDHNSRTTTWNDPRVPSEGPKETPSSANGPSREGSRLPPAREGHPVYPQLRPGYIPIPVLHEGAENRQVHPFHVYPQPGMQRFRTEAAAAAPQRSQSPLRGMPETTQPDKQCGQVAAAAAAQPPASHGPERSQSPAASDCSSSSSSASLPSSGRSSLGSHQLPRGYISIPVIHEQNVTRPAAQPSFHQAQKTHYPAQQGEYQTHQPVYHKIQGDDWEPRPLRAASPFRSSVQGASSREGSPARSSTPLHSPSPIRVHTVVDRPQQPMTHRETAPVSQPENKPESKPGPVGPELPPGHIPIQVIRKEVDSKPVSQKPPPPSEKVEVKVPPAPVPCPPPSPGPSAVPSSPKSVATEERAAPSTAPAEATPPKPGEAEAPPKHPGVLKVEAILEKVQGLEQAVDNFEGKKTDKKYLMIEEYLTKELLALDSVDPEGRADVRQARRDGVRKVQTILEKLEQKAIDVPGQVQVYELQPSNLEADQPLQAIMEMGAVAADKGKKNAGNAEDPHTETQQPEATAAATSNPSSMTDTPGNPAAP
UniProt P20700: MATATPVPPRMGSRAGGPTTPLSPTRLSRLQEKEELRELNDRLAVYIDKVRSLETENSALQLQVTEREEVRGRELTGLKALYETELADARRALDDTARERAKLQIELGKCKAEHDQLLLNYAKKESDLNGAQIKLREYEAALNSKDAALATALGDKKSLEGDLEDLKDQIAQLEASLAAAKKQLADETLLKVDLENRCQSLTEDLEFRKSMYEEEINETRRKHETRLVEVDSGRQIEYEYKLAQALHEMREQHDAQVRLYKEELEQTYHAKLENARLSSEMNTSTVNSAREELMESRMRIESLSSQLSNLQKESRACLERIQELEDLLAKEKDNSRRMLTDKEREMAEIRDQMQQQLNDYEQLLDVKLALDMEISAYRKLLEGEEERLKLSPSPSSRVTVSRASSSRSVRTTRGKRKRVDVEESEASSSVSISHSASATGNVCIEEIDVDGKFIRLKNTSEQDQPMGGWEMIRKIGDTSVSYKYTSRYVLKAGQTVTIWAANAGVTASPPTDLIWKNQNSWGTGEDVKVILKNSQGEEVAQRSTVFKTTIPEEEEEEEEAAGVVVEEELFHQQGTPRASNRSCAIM

These are yes or no findings as the source states them, for the method shown. Binding seen in cells or lysates may run through a third protein. Some binding calls cover weakened binding; strength is not graded here.

In the case of “mCherry-lamin B1-10 (from UniProt P20700 1-586)”, the binding result is on record as “binds”.

These data come from paper PMC6328609.
